Assay results published in PubChem BioAssay AID250 (DTP/NCI, 2004).
The list is a part of this screen's results and no random one: it gathers tests that were run many times, whatever their T/C, doses with no T/C, and many T/C values between a quarter and a half above the control. Other doses and runs of a compound stand elsewhere. T/C is the treated group as % of the vehicle group. Some entries give survivors of the animals treated and no T/C: the source holds a T/C of zero for them, seemingly a mark for toxic or unscored doses. Some doses without a T/C left all or most animals alive at the check, yet need not have been tolerated: the source hardly ever lists a survival T/C far under the control, and the zero likely stands for such cases as well. For some of these results: Counts of survivors are from the toxicity check (mostly the fifth day) where no day follows; animals may have died later. Schedule codes are those of the source, taken here to give the interval after Q, in days (D) or hours (H), and the number of doses after X. Some schedules carry Z or #; the key to these is not given. For some of these results: Where survival is the endpoint, the PubChem record calls one and a half times the control and up active, and a quarter to a half above the control has no call in these data; cut-offs in other NCI protocols can differ. Some T/C values carry the count of animals alive at the toxicity check (mostly the fifth day); where none is given, no animal had died by that day.

Key:
[1] = tested on: BDF1 mice, L1210 leukemia sc, survival T/C; assay: NCI In Vivo Anticancer Drug Screen. Data for tumor model L1210 Leukemia (subcutaneous) in B6D2F1 (BDF1) mice; details: T/C endpoint: median survival time, higher T/C = longer survival
In short: (§1)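 Mice carrying transplanted tumors received test compounds, and survival or tumor size was measured. Values are the treated-group measurement (T) divided by that of the vehicle-treated control group (C).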

[2] = tested on: BDF1 mice, L1210 leukemia sc; assay: as above; details: T/C endpoint: median survival time, higher T/C = longer survival
In short: as §1

[3] = dose: 108.0 mg/kg/injection, schedule: Q01DX Z (sc), vehicle: carboxymethylcellulose (CMC)

CC(CNC(=O)CCOS(C)(=O)=O)NC(=O)CCOS(C)(=O)=O (configuration not stated) was tested, and the survivor count ([1]; dose: 65.0 mg/kg/injection, schedule: Q01DX Z (sc), vehicle: carboxymethylcellulose (CMC)) was 3 of 10, the survivor count [1, 3] was 3 of 10 and the survivor count ([1]; dose: 180.0 mg/kg/injection, schedule: Q01DX Z (sc), vehicle: carboxymethylcellulose (CMC)) was 4 of 10. The T/C [2, 3] was 135 % of control, the T/C ([2]; dose: 300.0 mg/kg/injection, schedule: Q01DX Z (sc), vehicle: carboxymethylcellulose (CMC)) was 137 % of control [7 of 10 alive] and the T/C ([2]; dose: 500.0 mg/kg/injection, schedule: Q01DX Z (sc), vehicle: carboxymethylcellulose (CMC), evaluated on day 31) was 137 % of control. The T/C ([2]; dose: 500.0 mg/kg/injection, schedule: Q01DX Z (sc), vehicle: carboxymethylcellulose (CMC), run until all animals had died) was 125 % of control.
With CN(O)C(N)=O the survivor count ([1]; dose: 130.0 mg/kg/injection, schedule: Q01DX Z (sc), vehicle: saline) was 4 of 8, the survivor count ([1]; dose: 216.0 mg/kg/injection, schedule: Q01DX Z (sc), vehicle: saline) was 4 of 8 and the survivor count ([1]; dose: 600.0 mg/kg/injection, schedule: Q01DX Z (sc), vehicle: saline) was 4 of 8. The T/C ([2]; dose: 78.0 mg/kg/injection, schedule: Q01DX Z (sc), vehicle: saline) was 138 % of control [7 of 8 alive].
CC[n+]1ccc(Nc2ccc(NC(=O)c3ccc(Nc4cc[n+](CC)c5ccc(N)cc45)cc3)cc2)cc1 was tested, and the survivor count ([1]; dose: 16.0 mg/kg/injection, schedule: Q01DX009 (ip), vehicle: water) was 0 of 8, the survivor count ([1]; dose: 16.0 mg/kg/injection, schedule: Q03HX008 (sc), vehicle: water) was 1 of 8 and the survivor count ([1]; dose: 32.0 mg/kg/injection, schedule: Q01DX001 (sc), vehicle: water) was 5 of 8. The T/C ([2]; dose: 2.0 mg/kg/injection, schedule: Q01DX009 (sc), vehicle: water) was 145 % of control, the T/C ([2]; dose: 4.0 mg/kg/injection, schedule: Q03HX008 (sc), vehicle: water) was 130 % of control and the T/C ([2]; dose: 4.0 mg/kg/injection, schedule: Q03HX024 (ip), vehicle: water) was 133 % of control. The T/C ([2]; dose: 8.0 mg/kg/injection, schedule: Q03HX024 (sc), vehicle: water) was 140 % of control, the T/C ([2]; dose: 8.0 mg/kg/injection, schedule: Q04DX003 (sc), vehicle: water) was 125 % of control and the T/C ([2]; dose: 16.0 mg/kg/injection, schedule: Q01DX001 (sc), vehicle: water) was 130 % of control. The T/C ([2]; dose: 32.0 mg/kg/injection, schedule: Q04DX003 (sc), vehicle: water) was 140 % of control [7 of 8 alive].
In the case of C=CCNC(=O)NCC=C, the survivor count ([1]; dose: 400.0 mg/kg/injection, schedule: Q01DX001 (ip), vehicle: saline) is reported as 5 of 8, the survivor count ([1]; dose: 400.0 mg/kg/injection, schedule: Q01DX001 (sc), vehicle: saline) is reported as 5 of 8 and the survivor count ([1]; dose: 400.0 mg/kg/injection, schedule: Q01DX009 (ip), vehicle: saline) is reported as 1 of 8. The survivor count ([1]; dose: 400.0 mg/kg/injection, schedule: Q01DX009 (sc), vehicle: saline) was 0 of 8, the survivor count ([1]; dose: 400.0 mg/kg/injection, schedule: Q04DX003 (ip), vehicle: saline) was 4 of 8 and the survivor count ([1]; dose: 400.0 mg/kg/injection, schedule: Q04DX003 (sc), vehicle: saline) was 4 of 8. The survivor count ([1]; dose: 800.0 mg/kg/injection, schedule: Q01DX001 (ip), vehicle: saline) was 0 of 8, the survivor count ([1]; dose: 800.0 mg/kg/injection, schedule: Q01DX001 (sc), vehicle: saline) was 0 of 8 and the survivor count ([1]; dose: 800.0 mg/kg/injection, schedule: Q04DX003 (ip), vehicle: saline) was 0 of 8. For the same molecule, the survivor count ([1]; dose: 800.0 mg/kg/injection, schedule: Q04DX003 (sc), vehicle: saline) was 3 of 8, the T/C ([2]; dose: 12.5 mg/kg/injection, schedule: Q01DX009 (ip), vehicle: saline) was 127 % of control and the T/C ([2]; dose: 12.5 mg/kg/injection, schedule: Q01DX009 (sc), vehicle: saline) was 127 % of control. The T/C ([2]; dose: 25.0 mg/kg/injection, schedule: Q01DX009 (ip), vehicle: saline) was 133 % of control, the T/C ([2]; dose: 25.0 mg/kg/injection, schedule: Q01DX009 (sc), vehicle: saline) was 127 % of control and the T/C ([2]; dose: 50.0 mg/kg/injection, schedule: Q01DX009 (ip), vehicle: saline) was 133 % of control. For the same molecule, the T/C ([2]; dose: 50.0 mg/kg/injection, schedule: Q01DX009 (sc), vehicle: saline) was 138 % of control, the T/C ([2]; dose: 100.0 mg/kg/injection, schedule: Q01DX009 (ip), vehicle: saline) was 144 % of control and the T/C ([2]; dose: 100.0 mg/kg/injection, schedule: Q01DX009 (sc), vehicle: saline) was 144 % of control. For the same molecule, the T/C ([2]; dose: 200.0 mg/kg/injection, schedule: Q01DX009 (sc), vehicle: saline) was 144 % of control and the T/C ([2]; dose: 200.0 mg/kg/injection, schedule: Q04DX003 (sc), vehicle: saline) was 127 % of control [7 of 8 alive].
In the case of Nc1nc(N)c2cc(CNc3ccc(C(=O)NC(CC(=O)O)C(=O)O)cc3)ccc2n1 (configuration not stated), the survivor count ([1]; dose: 100.0 mg/kg/injection, schedule: Q01DX001 (sc), vehicle: saline) is reported as 5 of 8 and the T/C ([2]; dose: 25.0 mg/kg/injection, schedule: Q01DX001 (sc), vehicle: saline) is reported as 138 % of control.
In the case of COc1cccc2c1C(=O)c1c(O)c3c(c(O)c1C2=O)C[C@@](O)(C(C)=O)C[C@@H]3OC1CC(N)C(O)C(C)O1 (some centres not stated), the survivor count ([1]; dose: 8.0 mg/kg/injection, schedule: Q04DX003 (ip), vehicle: saline) is reported as 10 of 10, the survivor count ([1]; dose: 16.0 mg/kg/injection, schedule: Q04DX003 (ip), vehicle: saline) is reported as 10 of 10 and the T/C ([2]; dose: 8.4 mg/kg/injection, schedule: Q01DX Z (sc), vehicle: saline) is reported as 140 % of control. For the same molecule, the T/C ([2]; dose: 8.4 mg/kg/injection, schedule: Q01DX Z (sc), vehicle: water) was 133 % of control, the T/C ([2]; dose: 8.6 mg/kg/injection, schedule: Q01DX Z (sc), vehicle: saline) was 140 % of control and the T/C ([2]; dose: 14.0 mg/kg/injection, schedule: Q01DX Z (sc), vehicle: saline) was 130 % of control. The T/C ([2]; dose: 14.4 mg/kg/injection, schedule: Q01DX Z (sc), vehicle: saline) was 130 % of control, the T/C ([2]; dose: 18.0 mg/kg/injection, schedule: Q04DX003 (sc), vehicle: water, evaluated on day 5) was 135 % of control and the T/C ([2]; dose: 18.0 mg/kg/injection, schedule: Q04DX003 (sc), vehicle: water, evaluated on day 45) was 138 % of control.
